The source of these data is doi:10.1101/770669.

By UniProt entry, the sequences of proteins in these tests, tags left out. Where a name states a change or a piece, a line headed by the entry shows the natural chain unless it says otherwise.
UniProt Q9NS69: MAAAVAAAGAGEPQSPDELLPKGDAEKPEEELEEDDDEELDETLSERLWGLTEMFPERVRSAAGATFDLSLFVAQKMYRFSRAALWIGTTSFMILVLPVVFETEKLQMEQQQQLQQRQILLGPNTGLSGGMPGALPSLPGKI
UniProt O43169: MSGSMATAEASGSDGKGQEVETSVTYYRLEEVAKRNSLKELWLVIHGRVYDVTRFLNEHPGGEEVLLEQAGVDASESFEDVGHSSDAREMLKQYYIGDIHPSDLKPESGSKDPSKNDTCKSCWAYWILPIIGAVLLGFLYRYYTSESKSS

No constants are given. Whether binding was seen depends on the method and setting. In cells and extracts the contact can be indirect. A result given as binding can be weak or reduced; the word gives no strength.

The assay addresses translocase of outer mitochondrial membrane 22 homolog (yeast) (TOMM22), VF1-tagged bait (human) (UniProt Q9NS69). Briefly: split reporter.

For the substance “CYB5B, VF2-tagged prey (from UniProt O43169)”, the binding entry was “binds”.
